# Values of other authors, collected in patent US11953435B2, “Zinc-responsive fluorophores” (Northwestern University, priority 2019, dated 2024).
# For at least one compound, name, drawing or mass did not settle the structure.
# Details: dissolved in 0.1 N NaOH, literature-determined; cited from earlier work
smiles,measurement,value
O=C1OC2(c3ccc(O)cc3Oc3cc(O)ccc32)c2ccccc21 [Fluorescein],quantum yield (standard),0.95
